The record followed here is article PMC5974921.

Protein sequences, listed by entry. Tags and fused reporters are not part of them. Residues count along the entry.
UniProt Q9HCN6, residues 21-339: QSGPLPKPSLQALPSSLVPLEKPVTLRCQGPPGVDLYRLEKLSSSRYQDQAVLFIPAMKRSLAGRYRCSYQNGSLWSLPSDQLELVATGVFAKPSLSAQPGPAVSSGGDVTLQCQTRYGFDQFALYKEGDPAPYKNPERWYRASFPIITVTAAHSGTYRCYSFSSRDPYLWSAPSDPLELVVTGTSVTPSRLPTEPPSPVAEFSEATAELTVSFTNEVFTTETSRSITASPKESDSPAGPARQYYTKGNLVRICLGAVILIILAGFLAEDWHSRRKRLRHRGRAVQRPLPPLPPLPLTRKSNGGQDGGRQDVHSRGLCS

No constants are given. Whether binding was seen depends on the method and setting. Binding calls can cover weak binding; strength is not graded here.

This experiment addresses ProMMP‐13 (UniProt P45452). Put plainly: static platelet adhesion assay; plates coated with 10 μg/ml MMP-13 variants, fibrinogen or peptides, blocked with 5% BSA; washed platelets (healthy donor or αIIbβ3-null Glanzmann) added with 2 mmol L^-1 Mg2+ or EDTA, with or without pre-incubation with receptor antagonists; A405; only the target purified.

Take “integrin αIIbβ3 on platelets (from UniProt P08514 32-1039; P05106 27-788) (receptor)”: the binding entry is recorded as “binds”.
The entry for “platelet glycoprotein (GP)VI on platelets (from UniProt Q9HCN6 21-339) (receptor)” is “binds”.
